Assay results as given in patent publication US10967029B2, “Method of using Cistanche tubulosa extract to prevent, slow down, or treat an eye disease caused by oxidative stress” (Sinphar Pharmaceutical Co., Ltd., priority 2014, dated 2021).
Some results were stated once for a whole list of compounds, not compound by compound.

Test system: RPE cells
Experiment: Protective effect to blue light irradiation-induced cytotoxicity (MTT assay)
Settings: blue light (480 nm, 30 lux) for 5 days (viability about 60% without treatment); medium concentrations
Experimental: The cell culturing comprises the following steps. • 1. RPE cell clones were taken out from anti-frozen tubes in liquid nitrogen and quickly moved to a sterile hood after thawed in 37° C. water bath for 1 minute. RPE cell clones were taken out and placed in 10 cm dishes having 10 mL DMEM (Dulbecco's Modified Eagle Medium) therein. 10% inactivated fetal bovine serum (FBS), 2 mM L-glutamine, 100 U/mL penicillin, and 100 µg/mL streptomycin were added into the DMEM. • 2. The dishes were placed in a 37° C. incubator and cultured in conditions of a mixture gas of 95% air and 5% CO2, as well as 70% humidity. The old mediums were replaced by fresh mediums every 3 days. Serum-free DMEM was used instead of the mediums before performing experiments. • 3. When cells proliferated to nearly saturation, the numbers of cells were counted by a cell counter. […] Since RPE cells are attachment type cells, the medium containing the cells was transferred into 15 mL centrifugation tubes and then centrifuged at 72 g for 5 mines at room temperature when the medium was replaced. […]
Before experiment, the medium was replaced by serum-free medium. Fixed quantity of RPE cells (2×10^5 cells/mL) were respectively placed in 96 wells of a plate. […] After completely dissolving the residual cells, the enzyme immunoassay analyzer was used to detect the absorbance of each well. […]

C[C@@H]1O[C@@H](O[C@@H]2[C@@H](O)[C@H](OCCc3ccc(O)c(O)c3)O[C@H](COC(=O)/C=C/c3ccc(O)c(O)c3)[C@H]2O)[C@H](O)[C@H](O)[C@H]1O [Embodiment 4, Isoacteoside]
cell viability: above 90%
